# According to PMC12040169 (PLOS Biology, 2025):
# This is one part of the list.
# Tested on: T1, CTL2-GFP (C. trachomatis L2/434/Bu, GFP-expressing)
# T1 construct: L2/434/Bu, GFP-expressing
# Parameters: species or system HeLa; Intracellular C. trachomatis growth in HeLa cells, bulk GFP fluorescence relative to DMSO
# Conditions: bulk GFP, single well; 28.5 h, 10 µM; inhibitor
row,Compound,% of control remaining
1,CCc1nccn1CCN1CCCC(COc2ccccc2F)C1 (stereo not drawn) [CBK307416],134.032%
2,COc1ccc(N2C(=S)N(Cc3cccs3)[C@H]3[C@@H](O)[C@H](O)C[C@@H](C(N)=O)[C@H]32)cc1 [CBK288929],126.656%
3,Cc1[nH]c2ccccc2c1[C@H]1CC[C@@H](NC(=O)c2ccnn2C)C1 [CBK284761],139.689%
4,CN1CCN(c2cc(CNC(=O)c3ccnc(Cl)c3)ccn2)CC1 [CBK298275],126.794%
5,O=C(Nc1cccc(C(=O)O)c1)Nc1ccc(Cl)c(Cl)c1 [CBK155455G],106.736%
6,c1ccc2c(c1)OCC(COc1cncc(OC3CCN(CC4CCCCC4)C3)n1)O2 (stereo not drawn) [CBK084387],102.609%
7,CN(C)c1nc(N(C)CC2(CO)CCOCC2)ncc1F [CBK307091],113.5%
8,CCC(=O)Nc1nc(-c2ccc(OC)cc2)cs1 [CBK070494],119.935%
9,Cc1cc(Cc2cccc(Cl)c2)cc(C2CCCN(C(=O)CN3CCCC3=O)C2)n1 (stereo not drawn) [CBK286103],134.561%
10,CC(=O)Nc1ccc(S(=O)(=O)N2CCN(C(=O)COc3ccc4ccccc4c3)CC2)cc1 [CBK264164],125.753%
11,Cc1ccc(-c2ccc(CCC(=O)O)[nH]2)cc1 [CBK264820],98.5477%
12,Cc1c2cn[nH]c(=O)c2c(C)n1-c1ccccc1 [CBK018349],143.097%
13,O=C(O)CCCC(=O)Nc1ccc(Cc2ccncc2)cc1 [CBK300493],110.152%
14,CCOCCn1cnc2sc(C(=O)NCc3ccccn3)c(C)c2c1=O [CBK071857],141.366%
15,O=C1NN(c2ccc(F)c(Cl)c2)C(=O)/C1=C/c1ccc(-c2ccc(Cl)cc2)o1 [CBK095978],63.304%
16,Cc1c(Cl)cccc1S(=O)(=O)Nc1c(C(=O)N2CCOCC2)[nH]c2ccccc12 [CBK050076],131.696%
17,C#C[C@H]1C[N@@]2CC[C@H]1C[C@@H]2CNS(=O)(=O)c1ccc(NC(C)=O)cc1 [CBK288752],118.498%
18,FC(F)(F)Oc1ccc(-c2nccnc2OCC2COc3ccccc3O2)cc1 (stereo not drawn) [CBK106845],93.614%
19,CN1C(=O)/C(=C2\SC(=S)N(C(CC(=O)O)C(=O)O)C2=O)c2ccccc21 (stereo not drawn) [CBK261012],68.126%
20,Cc1cc(C)c2c(OCC(=O)N(C)CC(=O)NC(C)C)nn(C)c2n1 [CBK304931],112.165%

# Look-ups from the entries so far:
# `O=C1NN(c2ccc(F)c(Cl)c2)C(=O)/C1=C/c1ccc(-c2ccc(Cl)cc2)o1` [CBK095978] | % of control remaining: 63.304%
# `CN(C)c1nc(N(C)CC2(CO)CCOCC2)ncc1F` [CBK307091] | % of control remaining: 113.5%

# The list goes on.

row,Compound,% of control remaining
1,O=C(NCCCN1CCCC(O)C1)N1CCCN(Cc2cccs2)CC1 (stereo not drawn) [CBK307116],173.331%
2,CC(=O)NS(=O)(=O)c1ccc(Nc2ccc([N+](=O)[O-])c3nonc23)cc1 [CBK261443],117.451%
3,CO/N=C\c1c(CO)cnc(C)c1O [CBK022776],138.893%
4,NC(=O)CCNC(=O)c1ccc2[nH]ccc2c1 [CBK149082],108.098%
5,Cc1noc(C)c1C(=O)NCCc1ccc(S(N)(=O)=O)cc1 [CBK268143],106.448%
6,CC(=O)Nc1nc(-c2ccccc2C)ccc1C(=O)NC1CCCCC1 [CBK106327],100%
7,CC(=O)c1ccc(-c2cnc(N)c(N3CCC[C@@H]3CO)n2)s1 [CBK063438],164.946%
8,CC(C)(C)c1n[nH]c(C2CN(C(=O)CCc3cscn3)CCO2)n1 (stereo not drawn) [CBK305205],119.415%
9,Cc1nc2sccn2c(=O)c1NC(=O)c1ccccn1 [CBK287665],94.8652%
10,CC1(C(=O)O)CC(C)(C(=O)O)CC(C)(C(=O)O)C1 (stereo not drawn) [CBK266107],100%
11,CN(C)CC1CCCCN1S(=O)(=O)c1ccc(C(C)(C)C)cc1 (stereo not drawn) [CBK051347],138.588%
12,COc1ccc(OCC(=O)N2CCN(S(=O)(=O)c3ccccc3[N+](=O)[O-])CC2)cc1 [CBK264213],121.625%
13,COc1ccc(-c2cnc(N)nc2C2CCCN(C(=O)CCCc3ccccc3)C2)cc1 (stereo not drawn) [CBK286091],123.623%
14,N#Cc1ccsc1NC(=O)CN1CCN(c2cccc(Cl)c2)CC1 [CBK306192],83.0939%
15,O=C(/C=C/c1ccc2c(c1)OCO2)NCCSCc1c(F)cccc1Cl [CBK265239],118.438%
16,CC(C)(c1ccccc1)c1ccc(OCCOc2ccc(/C=C3\SC(=S)NC3=O)cc2)cc1 [CBK264378],129.535%
17,O=C1CSC(c2cn(-c3ccccc3)nc2-c2ccc(Br)cc2)N1Cc1ccccc1 (stereo not drawn) [CBK263146],113.464%
18,O=C(NC1(C(F)(F)F)NC(=O)N(CCc2ccccc2)C1=O)c1ccco1 (stereo not drawn) [CBK267482],121.664%
19,CCCCCOc1ccc(Nc2ccc(-c3cc4ccccc4o3)cn2)cc1 [CBK036828],76.8498%
